According to PubChem BioAssay AID488837 (National Center for Advancing Translational Sciences (NCATS), 2010):
Out of some 330,000 compounds screened, about 20 (0.006%) were called active. Inconclusive results, whose numbers are uncertain, are shown with a selection of clear calls. Calls come from the whole dose curve; as a rule, active = well fitted inhibition curve with a large enough effect; inconclusive = small, poorly fitted or top-dose-only effect, or effect the other way; inactive = flat fitted curve, though single readings scatter. Potencies beside an inconclusive call are fits to weak or partial responses and may not hold up.

Sequences of proteins named here, by UniProt entry; tags and fusion partners are left off. A change or cut given only in a name is not applied to a line headed by its entry.
UniProt O00167: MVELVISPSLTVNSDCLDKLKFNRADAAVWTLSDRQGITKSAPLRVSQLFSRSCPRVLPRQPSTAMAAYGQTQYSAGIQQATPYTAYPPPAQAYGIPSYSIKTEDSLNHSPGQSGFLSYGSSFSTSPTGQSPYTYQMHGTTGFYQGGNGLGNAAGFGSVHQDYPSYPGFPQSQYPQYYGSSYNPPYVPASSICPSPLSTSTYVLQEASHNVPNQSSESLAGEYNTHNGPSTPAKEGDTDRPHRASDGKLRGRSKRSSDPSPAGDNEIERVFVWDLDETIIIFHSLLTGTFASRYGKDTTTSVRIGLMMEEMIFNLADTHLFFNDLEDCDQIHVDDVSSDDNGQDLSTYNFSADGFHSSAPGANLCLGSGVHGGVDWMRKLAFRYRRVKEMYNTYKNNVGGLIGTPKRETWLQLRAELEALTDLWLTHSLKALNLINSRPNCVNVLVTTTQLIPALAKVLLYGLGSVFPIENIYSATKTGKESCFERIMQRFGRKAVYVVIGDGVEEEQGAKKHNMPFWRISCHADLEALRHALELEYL

Molecular target: Protein phosphatase EYA2 (Homo sapiens) (UniProt O00167)
Experiment: qHTS Assay for Inhibitors of the Phosphatase Activity of Eya2
Settings: recombinant Eya2, OMFP fluorescence dephosphorylation (OMFP is methylfluorescein phosphate); activity, negative = inhibition: at 76.9 µM (top of the series)
How it was run: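 Eya2 protein (added as 0.2 uM solution) was preincubated with compound for 10 min at ambient temperature in 50 mM HEPES pH 7.5, 50 mM NaCl, 5 uM MgCl2, 0.05% BSA, 1 mM DTT. OMFP (added at 50 uM) then reacted 10 min; fluorescence read at 485/525 nm.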
% is set by controls: 0 for no effect and ±100 for the full control effect; potency is the fitted concentration of half-maximal effect.

| Structure (SMILES) | Potency | activity, negative = inhibition |
| --- | --- | --- |
| COC(=O)[C@H]1C[C@@H]1[C@H](NP(=O)(c1ccccc1)c1ccccc1)c1ccccc1 | inactive |  |
| COc1cc(C=C2C(=O)NC(=O)NC2=O)ccc1O | inactive |  |
| O=C(C(=C1N(Cc2ccc(Cl)nc2)CCN1Cc1ccc(Cl)nc1)[N+](=O)[O-])C(Cl)Cl | inconclusive: 20 µM [inhibitor, single point] |  |
| CCN(CC)c1ccc(N=Cc2c(O)n(CCC3=CCCCC3)c(=O)[nH]c2=O)cc1 | inactive |  |
| COC(=O)C1=C(c2c(C)noc2C)C[C@@H]2CC[C@H]1N2C(=O)N1CCc2cc(OC)c(OC)cc2C1 | inactive |  |
| COc1ccc(S(=O)(=O)Cc2ccc(C(=O)N3CCC4(CC3)OCCO4)o2)cc1 | inactive |  |
| O=c1oc2ccccc2c(O)c1C(c1ccccn1)c1c(O)c2ccccc2oc1=O | inconclusive: 89.1 µM [inhibitor, single point] |  |
| Cc1ccc(N2C(=O)NC(=O)/C(=C/c3cnc(-c4ccccc4)nc3)C2=O)cc1C | inactive |  |
| COc1ccc(-n2c(O)c(C=NCCN(C)C)c(=O)[nH]c2=O)cc1 | inconclusive: 141 µM [inhibitor, partial curve, poor fit] |  |
| COc1cccc(-n2c(/C=C/c3ccc(O)c(O)c3)nc3ccccc3c2=O)c1 | inconclusive: 158 µM [activator, partial curve] |  |
| O=C(N/N=C/c1c(O)n(CCc2ccccc2)c(=O)[nH]c1=O)c1ccccc1O | inconclusive: 22.4 µM [inhibitor, single point] |  |
| C=Cn1ccnc1P(=S)(c1ccn(C)c1)c1nccn1C=C | inactive |  |
| CS(=O)(=O)c1ccc(C(=O)N2CCC(C(=O)O)(c3ccccc3)CC2)cc1 | inconclusive: 89.1 µM [inhibitor, single point] |  |
| C/C(O)=C(\C#N)C(=O)Nc1cc(Br)ccc1Br | inconclusive: 200 µM [activator, partial curve] |  |
| CC(C(=O)Nc1ccc(Br)cc1C(=O)c1ccccc1)N1CCCCC1 (stereo unspecified) | inconclusive: 22.4 µM [inhibitor, single point] |  |
| N#CC1(c2ccccc2)CCN(C2CC(=O)N(c3ccc(F)cc3)C2=O)CC1 (stereo unspecified) | inconclusive: 22.4 µM [inhibitor, single point] |  |
| Cc1ccccc1-n1c(O)c(/C=N/NC(=O)c2ccncc2)c(=O)[nH]c1=O | inconclusive: 89.1 µM [inhibitor, single point] |  |
| CN1CCN(c2ccc(N)cc2)CC1 | inactive |  |
| CCN1CCN(S(=O)(=O)c2ccc(Cl)nc2)CC1 | inactive |  |
| O=[N+]([O-])c1ccc(N2CCCCCC2)c2nonc12 | inconclusive: 31.6 µM [activator, partial curve] |  |
| O=C(c1ccc2c(c1)ncn2-c1ccc(F)cc1F)N1CCC2(CC1)OCCO2 | inconclusive: 25.1 µM [inhibitor, single point] |  |
| Cc1cccc(CN2CCCN(Cc3ccc(Cl)cc3)S2(=O)=O)c1 | inconclusive: 224 µM [inhibitor, partial curve, poor fit] |  |
| Cc1cc(O)c2c(c1)C(=O)C13C(=C2O)C(=O)[C@H]2[C@@H](O)[C@@H]1[C@H]1[C@H](O)[C@@H]3C(=O)C3=C(O)c4c(O)cc(C)cc4C(=O)C312 (stereo partly specified) | inactive |  |
| O=[N+]([O-])c1ccc(N2CCCC2)c2ccncc12 | inconclusive: 12.6 µM [inhibitor, partial curve, poor fit] |  |

An excerpt of these results, with bars between the fields:
Structure (SMILES) | Potency | activity, negative = inhibition
COc1cc(C=C2C(=O)NC(=O)NC2=O)ccc1O | inactive | 
O=C(N/N=C/c1c(O)n(CCc2ccccc2)c(=O)[nH]c1=O)c1ccccc1O | inconclusive: 22.4 µM [inhibitor, single point] | 
CC(C(=O)Nc1ccc(Br)cc1C(=O)c1ccccc1)N1CCCCC1 (stereo unspecified) | inconclusive: 22.4 µM [inhibitor, single point] | 
O=[N+]([O-])c1ccc(N2CCCC2)c2ccncc12 | inconclusive: 12.6 µM [inhibitor, partial curve, poor fit] | 

Additional results follow:

| Structure (SMILES) | Potency | activity, negative = inhibition |
| --- | --- | --- |
| O=[N+]([O-])c1ccc(N2CCCNCC2)c2ncccc12 | inconclusive: 794 µM [inhibitor, partial curve, poor fit] |  |
| COc1cccc(OCCNC(=O)c2cc([N+](=O)[O-])cc([N+](=O)[O-])c2)c1 | inconclusive: 100 µM [inhibitor, single point] |  |
| O=C1NC(=O)C(=Cc2ccc(OCCOc3ccc([N+](=O)[O-])cc3)cc2)C(=O)N1 | inactive |  |
| COc1ccc(CN2C(=O)NC(=O)/C(=C/c3ccc([N+](=O)[O-])o3)C2=O)cc1 | inconclusive: 17.8 µM [inhibitor, single point] |  |
| COc1ccc(CCNC(=O)c2c(N)n(CCN3CCOCC3)c3nc4ccccc4nc23)cc1OC | inactive |  |
| CCn1nc(-c2cccs2)nc2c(=O)n(C)c(=O)nc1-2 | inconclusive: 56.2 µM [inhibitor, partial curve] |  |
| COc1cc2c(cc1C=O)OCO2 | inactive |  |
| CCOC(=O)C1CCCN(c2ccc([N+](=O)[O-])c3nonc23)C1 (stereo unspecified) | inconclusive: 25.1 µM [activator, partial curve] |  |
| Clc1ccccc1CN1CCN(c2cccc3[nH]ccc23)CC1 | inconclusive: 178 µM [inhibitor, partial curve, poor fit] |  |
| COc1cccc(-n2c(O)c(C=NCCN3CCOCC3)c(=O)[nH]c2=O)c1 | inactive |  |
| COc1cc(C(=O)OCc2cc(=O)c(O)co2)ccc1OC(F)F | inconclusive: 141 µM [inhibitor, single point] |  |
| O=C1C=Cc2ccccc2C1=O | inactive |  |
| COc1ccc(C(=O)CCNc2ccc(F)cc2)cc1 | inconclusive: 251 µM [inhibitor, partial curve, poor fit] |  |
| O=[N+]([O-])c1cc(S(=O)(=O)c2ccc(O)c([N+](=O)[O-])c2)ccc1O | inactive |  |
| CCC(=O)N1N=C(c2c(O)n(C)c(=O)n(C)c2=O)CC1c1ccccc1 (stereo unspecified) | inconclusive: 22.4 µM [inhibitor, single point] |  |
| CCCCc1nc2ccccc2c(=O)n1-c1ccccc1O | inconclusive: 17.8 µM [inhibitor, single point] |  |
| CN(C)c1nc(-c2ccccc2)[n+](C)s1 | inactive |  |
| COc1cc(CNCCc2c[nH]c3ccccc23)cc(OC)c1 | inconclusive: 89.1 µM [inhibitor, single point] |  |
| O=C1NC(=O)C(=Cc2cc3c(cc2[N+](=O)[O-])OCO3)C(=O)N1 | inactive |  |
| COc1ccc(CN2C(=O)NC(=O)/C(=C/c3ccoc3)C2=O)cc1 |  | inconclusive: 35.7% [activator] |
| Cc1cc(C=C2C(=O)N(C)C(=S)N(C)C2=O)c(C)n1-c1ccncc1 | inactive |  |
| O=P(Oc1ccccc1)(Oc1ccccc1)N1CCN(c2ccc(F)cc2)CC1 | inactive |  |
| Nc1ccc(CCN2CCN(c3cccc(C(F)(F)F)c3)CC2)cc1 | inactive |  |
| COc1ccc(N2C(=O)/C(=C/c3ccc(OC)c(OC)c3)C(=O)NC2=S)cc1 | inactive |  |

| Structure (SMILES) | Potency | activity, negative = inhibition |
| --- | --- | --- |
| CCOc1ccccc1CN1CCCC(C(=O)c2cc(F)ccc2F)C1 (stereo unspecified) | inconclusive: 17.8 µM [inhibitor, single point] |  |
| CC(C)c1ccc(N2C(=O)NC(=O)/C(=C/C=C/c3ccco3)C2=O)cc1 | inactive |  |
| CC(=O)Nc1cc([As](=O)(O)O)ccc1O | inconclusive: 5620 µM [inhibitor, partial curve, poor fit] |  |
| CC(C)CCNC(=O)CN1C(=O)CN=C(c2ccccc2)c2ccccc21 | inconclusive: 22.4 µM [inhibitor, single point] |  |
| O=C1NC(=O)N(c2cccc(Br)c2)C(=O)/C1=C/c1ccsc1 | inactive |  |
| O=c1[nH]c(=S)n(-c2ccc(Cl)cc2)c(O)c1C=Nc1ccc(N2CCOCC2)cc1 | inconclusive: 141 µM [inhibitor, partial curve] |  |
| CCOc1ccc(N2C(=O)/C(=C\c3cccs3)C(=O)NC2=S)cc1 | inactive |  |
| Fc1ccc(CCNCc2ccccc2Cl)cc1 | inactive |  |
| O=c1cc(C(F)(F)F)c2cc3c4c(c2o1)CCCN4CCC3 | inconclusive: 12.6 µM [activator, partial curve] |  |
| C/C=C(\C)C(=O)N[C@@H](c1ccccc1)[C@@H](O)C(=O)O[C@H]1C[C@@]2(O)[C@@H](OC(=O)c3ccccc3)C3[C@](C)(C(=O)[C@H](O)C(=C1C)C2(C)C)[C@@H](O)C[C@H]1OC[C@@]31OC(C)=O (stereo partly specified) | inconclusive: 282 µM [inhibitor, partial curve] |  |
| COc1c(C=C2C(=O)NC(=O)NC2=O)c(CCN(C)C(=O)c2ccccc2)cc2c1OCO2 | inactive |  |
| CCN1CCc2ccccc2C1 | inconclusive: 100 µM [inhibitor, single point] |  |
| O=C(O)C1C2CCC(O2)C1C(=O)Nc1cccc(Br)c1 (stereo unspecified) | inconclusive: 14.1 µM [inhibitor, partial curve, poor fit] |  |
| CCOc1cccc(CNCCc2c(C)[nH]c3ccc(OC(F)(F)F)cc23)c1O | inconclusive: 25.1 µM [inhibitor, single point] |  |
| NCC1(c2ccc3c(c2)OCCO3)CCCC1 | inconclusive: 22.4 µM [inhibitor, single point] |  |
| C=C(C=O)C[C@@H]1C[C@H](O)C2OC3C[C@]4(C)OC5/C=C\CC6OC7C(CC=CCC6OC5CCCC4OC3CC2O1)OC1CC2OC3CC(=O)OC3C[C@@H](C)C[C@@]2(C)OC1C[C@@H]7C (stereo partly specified) | inactive |  |
| Cc1cc(N2CCNCC2)nc2ccccc12 | inconclusive: 44.7 µM [inhibitor, partial curve] |  |
| CCCCn1c(O)c(C(=O)/C=C/c2c[nH]c3ccccc23)c(=O)[nH]c1=O | inactive |  |
| c1ccc(-c2ccc(C(c3ccccc3)n3ccnc3)cc2)cc1 (stereo unspecified) | inconclusive: 25.1 µM [inhibitor, single point] |  |
| COc1cc2c(cc1O)C[C@H]1NCCc3cc4c(c-2c31)OCO4 | inactive |  |
| C[C@]1(O)CCC2C3CC[C@@H]4CC(=O)CC[C@]4(C)C3CC[C@@]21C (stereo partly specified) | inactive |  |
| CCn1c(=O)cc(OCC(=O)N2CCN(Cc3ccc4c(c3)OCO4)CC2)c2ccccc21 | inconclusive: 31.6 µM [inhibitor, partial curve] |  |
| Cc1ccc(CNS(=O)(=O)c2cc3c(cc2C)N(C)CCO3)cc1 | inconclusive: 100 µM [inhibitor, single point] |  |
